# PubChem BioAssay AID248 (DTP/NCI, 2004)
# The list does not hold the whole screen: it is rich in T/C values a quarter to a half above the control, in often repeated tests (any T/C) and in doses without a T/C. Other doses and runs of a compound stand elsewhere. T/C: endpoint of the treated group in % of that of the vehicle group. Some entries give survivors of the animals treated and no T/C: the source holds a T/C of zero for them, seemingly a mark for toxic or unscored doses. Some doses without a T/C left all or most animals alive at the check, yet need not have been tolerated: the source hardly ever lists a survival T/C far under the control, and the zero likely stands for such cases as well. Counts of survivors are from the toxicity check (mostly the fifth day) where no day follows; animals may have died later. Schedules are NCI's codes, taken here to give the interval after Q, in days (D) or hours (H), and the number of doses after X. Some schedule codes hold Z or #, which are not explained here. Where survival is the endpoint, the PubChem record calls one and a half times the control and up active, and a quarter to a half above the control has no call in these data; cut-offs in other NCI protocols can differ.
# System: L1210 leukemia ip in BDF1 mice, survival T/C
# Assay: NCI In Vivo Anticancer Drug Screen. Data for tumor model L1210 Leukemia (intraperitoneal) in B6D2F1 (BDF1) mice
# Conditions: T/C endpoint: mean survival time, higher T/C = longer survival
# [1] = dose: 120.0 mg/kg/injection, schedule: Q01DX Z (ip), vehicle: carboxymethylcellulose (CMC)
# [2] = dose: 300.0 mg/kg/injection, schedule: Q01DX001 (ip), vehicle: saline
# [3] = dose: 200.0 mg/kg/injection, schedule: Q01DX009 (ip), vehicle: saline with Tween-80
# [4] = dose: 400.0 mg/kg/injection, schedule: Q01DX009 (ip), vehicle: saline with Tween-80
# [5] = dose: 200.0 mg/kg/injection, schedule: Q01DX009 (ip), vehicle: saline
# [6] = dose: 400.0 mg/kg/injection, schedule: Q01DX009 (ip), vehicle: Klucel (hydroxypropylcellulose) (HPC)
# [7] = dose: 400.0 mg/kg/injection, schedule: Q04DX002 (ip), vehicle: saline with Tween-80
# [8] = dose: 100.0 mg/kg/injection, schedule: Q01DX001 (ip), vehicle: other
# [9] = dose: 80.0 mg/kg/injection, schedule: Q01DX001 (ip), vehicle: saline
# [10] = dose: 100.0 mg/kg/injection, schedule: Q01DX001 (ip), vehicle: saline
# [11] = dose: 200.0 mg/kg/injection, schedule: Q01DX001 (ip), vehicle: saline
# [12] = dose: 400.0 mg/kg/injection, schedule: Q01DX001 (ip), vehicle: saline
smiles,measurement,setting,value
O=C(Nc1ccc(C2=NCCN2)cc1)c1cncc(C(=O)Nc2ccc(C3=NCCN3)cc2)c1,T/C,"dose: 4.0 mg/kg/injection, schedule: Q01DX Z (ip), vehicle: saline",127 % of control
same,T/C,"dose: 8.0 mg/kg/injection, schedule: Q01DX Z (ip), vehicle: saline",145 % of control
same,survivor count,[1],6 of 6
Cc1cc(Cl)nc2c1ccn2C1OC(CO)C(O)C1O (stereo not drawn),survivor count,"dose: 50.0 mg/kg/injection, schedule: Q01DX005 (ip), vehicle: other",3 of 3
same,survivor count,"dose: 100.0 mg/kg/injection, schedule: Q01DX005 (ip), vehicle: other",2 of 3
same,survivor count,"dose: 200.0 mg/kg/injection, schedule: Q01DX005 (ip), vehicle: other",3 of 3
NC(CS/C(Cl)=C/Cl)C(=O)O (stereo not drawn),survivor count,"dose: 40.0 mg/kg/injection, schedule: Q01DX009 (ip), vehicle: saline",5 of 6
CCN=C(c1ccc(NC(=O)c2ccc(C(=O)Nc3ccc(C(=NCC)N(CC)CC)cc3)c(Cl)c2)cc1)N(CC)CC,survivor count,"dose: 1.87 mg/kg/injection, schedule: Q01DX Z (ip), vehicle: carboxymethylcellulose (CMC)",2 of 6
same,survivor count,"dose: 3.75 mg/kg/injection, schedule: Q01DX Z (ip), vehicle: carboxymethylcellulose (CMC)",0 of 6
same,survivor count,"dose: 7.5 mg/kg/injection, schedule: Q01DX Z (ip), vehicle: carboxymethylcellulose (CMC)",0 of 6
same,survivor count,"dose: 15.0 mg/kg/injection, schedule: Q01DX Z (ip), vehicle: carboxymethylcellulose (CMC)",0 of 6
same,survivor count,"dose: 30.0 mg/kg/injection, schedule: Q01DX Z (ip), vehicle: carboxymethylcellulose (CMC)",0 of 6
same,survivor count,"dose: 60.0 mg/kg/injection, schedule: Q01DX Z (ip), vehicle: carboxymethylcellulose (CMC)",0 of 6
same,survivor count,[1],0 of 6
CC(=O)C(C#N)c1c(C)cc(C)cc1C (stereo not drawn),survivor count,[2],2 of 6
Cn1nnc2c1C(=O)c1ccccc1C2=O,survivor count,"dose: 400.0 mg/kg/injection, schedule: Q04DX003 (ip), vehicle: other",2 of 6
CC(C)(C)c1ccc(SC(=O)Nc2cc([N+](=O)[O-])ccc2Cl)cc1,survivor count,[3],6 of 6
same,survivor count,[4],2 of 6
CN=C(NN(C)C)c1ccc(NC(=O)c2ccc(C(=O)Nc3ccc(C(=NC)NN(C)C)cc3)cc2)cc1,T/C,"dose: 10.0 mg/kg/injection, schedule: Q01DX Z (ip), vehicle: carboxymethylcellulose (CMC)",133 % of control
same,survivor count,"dose: 40.0 mg/kg/injection, schedule: Q01DX Z (ip), vehicle: carboxymethylcellulose (CMC)",0 of 6
same,survivor count,"dose: 80.0 mg/kg/injection, schedule: Q01DX Z (ip), vehicle: carboxymethylcellulose (CMC)",0 of 6
same,survivor count,"dose: 160.0 mg/kg/injection, schedule: Q01DX Z (ip), vehicle: carboxymethylcellulose (CMC)",0 of 6
CCCCC(CC)COP(=O)(CC(CC)CCCC)OCC(CC)CCCC (stereo not drawn),survivor count,[5],4 of 6
Cc1cc2nc(NC(=O)C3CC3)sc2cc1C,survivor count,[6],6 of 6
O=C(c1c(F)c(F)c(F)c(F)c1F)N1CC1,survivor count,"dose: 100.0 mg/kg/injection, schedule: Q01DX009 (ip), vehicle: water",3 of 6
same,survivor count,"dose: 200.0 mg/kg/injection, schedule: Q01DX009 (ip), vehicle: water",1 of 6
same,survivor count,"dose: 400.0 mg/kg/injection, schedule: Q01DX009 (ip), vehicle: water",0 of 6
COC(=O)C1=COC(C)C2CN3CCc4c([nH]c5cc(OC)ccc45)C3CC12 (stereo not drawn),survivor count,"dose: 87.5 mg/kg/injection, schedule: Q01DX Z (ip), vehicle: other",6 of 6
same,survivor count,"dose: 175.0 mg/kg/injection, schedule: Q01DX Z (ip), vehicle: other",5 of 6
COc1ccc(/C=N\NC(=O)N/N=C/c2ccc(OC)c(OC)c2)cc1OC,survivor count,"dose: 200.0 mg/kg/injection, schedule: Q01DX001 (ip), vehicle: Klucel (hydroxypropylcellulose) (HPC)",6 of 6
Cc1c(NC(=O)Nc2cccc(Cl)c2)nc(Br)c2ccccc12,survivor count,[7],1 of 3
CS(=O)(=O)OCCN(CCOS(C)(=O)=O)c1ccc(/C=N/Nc2ncnc3nc[nH]c23)cc1,T/C,"dose: 22.0 mg/kg/injection, schedule: Q01DX009 (ip), vehicle: other",136 % of control
same,T/C,"dose: 25.0 mg/kg/injection, schedule: Q01DX009 (ip), vehicle: saline",130 % of control
same,T/C,"dose: 33.0 mg/kg/injection, schedule: Q01DX009 (ip), vehicle: other",130 % of control
same,T/C,"dose: 50.0 mg/kg/injection, schedule: Q01DX009 (ip), vehicle: other",138 % of control
same,T/C,"dose: 50.0 mg/kg/injection, schedule: Q01DX009 (ip), vehicle: saline",136 % of control
same,T/C,"dose: 75.0 mg/kg/injection, schedule: Q01DX009 (ip), vehicle: other",144 % of control
same,T/C,[8],126 % of control
same,T/C,"dose: 200.0 mg/kg/injection, schedule: Q01DX001 (ip), vehicle: other",132 % of control
same,survivor count,[5],0 of 6
same,T/C,"dose: 400.0 mg/kg/injection, schedule: Q01DX001 (ip), vehicle: other",126 % of control
Cc1ncc(C#N)n1C(C)c1ccccc1 (stereo not drawn),survivor count,"dose: 400.0 mg/kg/injection, schedule: Q01DX001 (ip), vehicle: Klucel (hydroxypropylcellulose) (HPC)",1 of 3
O=NN(CCCl)C(=O)NC1CCS(=O)(=O)C1 (stereo not drawn) (tested in a mixture with another compound),survivor count,[8],6 of 10
same,survivor count,"dose: 150.0 mg/kg/injection, schedule: Q01DX001 (ip), vehicle: other",4 of 10
S=c1nc[nH]c2c1ncn2Cc1ccc(Cl)c(Cl)c1,T/C,"dose: 100.0 mg/kg/injection, schedule: Q04DX002 (ip), vehicle: Klucel (hydroxypropylcellulose) (HPC)",127 % of control
C[N+](C)(C)CC1COCCO1 (stereo not drawn),survivor count,"dose: 10.0 mg/kg/injection, schedule: Q01DX001 (ip), vehicle: saline",1 of 4
same,survivor count,"dose: 20.0 mg/kg/injection, schedule: Q01DX001 (ip), vehicle: saline",0 of 4
same,survivor count,"dose: 40.0 mg/kg/injection, schedule: Q01DX001 (ip), vehicle: saline",0 of 4
same,survivor count,"dose: 50.0 mg/kg/injection, schedule: Q01DX001 (ip), vehicle: saline",0 of 4
same,survivor count,[9],0 of 4
same,survivor count,[10],0 of 4
same,survivor count,[11],0 of 4
same,survivor count,[12],0 of 4
C[CH2][Ge]1([CH2]C)[CH2]C(C)=C(C)[CH2]1,survivor count,[7],0 of 3
CCC1CN1P(=O)(N(CC)CC)N1CC1CC (stereo not drawn),T/C,[11],127 % of control
same,survivor count,"dose: 225.0 mg/kg/injection, schedule: Q01DX009 (ip), vehicle: saline",4 of 6
same,T/C,[2],128 % of control
same,survivor count,"dose: 337.5 mg/kg/injection, schedule: Q01DX009 (ip), vehicle: saline",1 of 6
same,survivor count,[12],2 of 6
CCOC(=O)c1ccc(N(CC(N)O)S(=O)(=O)c2ccc(C)cc2)cc1 (stereo not drawn),survivor count,"dose: 100.0 mg/kg/injection, schedule: Q01DX009 (ip), vehicle: saline with Tween-80",0 of 6
same,survivor count,[3],0 of 6
same,survivor count,[4],0 of 6
Cc1cc(N(CCOS(C)(=O)=O)CCOS(C)(=O)=O)ccc1C=Nc1cccc(Cl)c1,survivor count,"dose: 200.0 mg/kg/injection, schedule: Q04DX003 (ip), vehicle: Klucel (hydroxypropylcellulose) (HPC)",6 of 6
same,survivor count,"dose: 400.0 mg/kg/injection, schedule: Q04DX003 (ip), vehicle: Klucel (hydroxypropylcellulose) (HPC)",6 of 6
OCC1OC(n2ccc3cncnc32)C(O)C1O (stereo not drawn),survivor count,[9],0 of 4
same,survivor count,[10],2 of 4
same,survivor count,[11],0 of 4
same,survivor count,[12],0 of 4
CN=C(N)N(C)/N=C/c1ccccc1,survivor count,"dose: 175.0 mg/kg/injection, schedule: Q04DX003 (ip), vehicle: Klucel (hydroxypropylcellulose) (HPC)",0 of 6
same,survivor count,"dose: 350.0 mg/kg/injection, schedule: Q04DX003 (ip), vehicle: Klucel (hydroxypropylcellulose) (HPC)",0 of 6
COc1cc2ccc(C(C)NCC#N)cc2cc1OC (stereo not drawn),survivor count,[6],3 of 6
Cc1cc(C)c2c(C#N)cn(-c3cccc([N+](=O)[O-])c3)c2n1,survivor count,[10],3 of 3
same,survivor count,[12],0 of 3
